Source: patent US6057161A (priority 1997, dated 2000)
Several values for one entry are separate records, joined by “and”; a condition that tells them apart may be missing. Equal entries are not always repeated. Where two headings read alike, the source gives them in different places.

Experiments:
[1] = for recoveries: Example 8 (LSD) procedure applied to other drugs
[2] = urine
[3] = Example 4A, SDVB, urine, elution hexane:ethyl acetate (3:1)
[4] = Example 9A, SDVB, urine, wash KH2PO4, elution CH2Cl2:isopropanol (80:20), HPLC
[5] = Example 9C, SDVB, urine, elution CH2Cl2:isopropanol:NH4OH (78:20:2), HPLC
[6] = Example 9D, SDVB, urine, elution methanol, HPLC
[7] = Example 4B, SDVB, urine, wash buffer:acetonitrile (9:1), elution acetone:CHCl3 (1:1)
[8] = Example 7, SDVB, urine, wash buffer, elution acetone:CHCl3 (1:1)
[9] = Example 10 general procedure, SDVB, urine, wash water or 5% aqueous methanol, elution ethyl acetate

## C=CCC1(c2ccccc2)C(=O)NC(=O)NC1=O [Alphenal]
[1]; [3]
  Percent Recovery: 105%

## CN(C)CCC=C1c2ccccc2CCc2ccccc21 [Amitriptyline]
[1]; [4]
  Percent Recovery: 100%
[1]; [5]
  Percent Recovery: 95%
[1]; [6]
  Percent Recovery: 77%
[1]; urine
  Percent Recovery: 92

## CCC1(CCC(C)C)C(=O)NC(=O)NC1=O [Amobarbital]
[1]; urine
  Percent Recovery: 93 and 90

## CC(N)Cc1ccccc1 (stereo not shown) [Amphetamine]
[1]; urine
  Percent Recovery: 92 and 85

## CN1[C@H]2CC[C@@H]1[C@@H](C(=O)O)[C@@H](OC(=O)c1ccccc1)C2 [Benzoylecgonine]
[1]; Example 2A, SDVB, urine, elution acetonitrile:n-butylchloride (3:7)
  Percent Recovery: 100%
[1]; Example 2B, SDVB, urine, elution acetone:CHCl3 (1:1)
  Percent Recovery: 99%
[1]
  recoveries: 100%
[1]; urine
  Percent Recovery: 74

## CCC(C)C1(CC)C(=O)NC(=O)NC1=O (stereo not shown) [Butabarbital]
[1]; [3]
  Percent Recovery: 91%
[1]; [7]
  Percent Recovery: 100%
[1]; urine
  Percent Recovery: 90

## CNC1=Nc2ccc(Cl)cc2C(c2ccccc2)=[N+]([O-])C1 [Chlorodiazepoxide]
[1]; [8]
  Percent Recovery: 100%
[1]; urine
  Percent Recovery: 100

## COC(=O)[C@H]1[C@@H](OC(=O)c2ccccc2)C[C@@H]2CC[C@H]1N2C [Cocaine]
[2]; Examples 2A-B, for drug of group with highest contamination
  approximate minimum detection limit: 96 ng/mL

## COc1ccc2c3c1O[C@H]1[C@@H](O)C=C[C@H]4[C@@H](C2)N(C)CC[C@@]341 [Codeine]
[1]; Example 6A, SDVB, unhydrolyzed urine, elution acetone:CHCl3 (7:3)
  Percent Recovery: 85%
[1]; Example 6B, SDVB, unhydrolyzed urine, elution MeOH with 2% NH4OH
  Percent Recovery: 98%
[1]; Example 6C, SDVB, unhydrolyzed urine, elution acetone:CHCl3 (1:1)
  Percent Recovery: 95%
[1]; Example 6D, SDVB, unhydrolyzed urine, elution 2% NH4OH in acetone:CHCl3 (7:3)
  Percent Recovery: 77%
[1]; Example 6E method omitting the hydrolysis step, free opiates
  recovery: 90%
[1]; Example 6E, SDVB, hydrolyzed urine, pH 6, elution n-BuCl:ethyl acetate (1:1) with 1% NH4OH
  Percent Recovery: 82%
[1]; Example 6F, SDVB, hydrolyzed urine, pH 8.4
  Percent Recovery: 92%
[1]; urine
  Percent Recovery: 85

## CNCCCN1c2ccccc2CCc2ccccc21 [Desipramine]
[1]; [4]
  Percent Recovery: 98%
[1]; [5]
  Percent Recovery: 105%
[1]; [6]
  Percent Recovery: 85%
[1]; urine
  Percent Recovery: 104

## CN(C)CCC=C1c2ccccc2COc2ccccc21 [Doxepin]
[1]; [4]
  Percent Recovery: 94%
[1]; [5]
  Percent Recovery: 80%
[1]; [6]
  Percent Recovery: 69%
[1]; urine
  Percent Recovery: 85

## OCc1nnc2n1-c1ccc(Cl)cc1C(c1ccccc1)=NC2 [Hydroxyalprazolam]
[1]; [8]
  Percent Recovery: 100%
[1]; [9]
  Percent Recovery: 100%

## OCc1nnc2n1-c1ccc(Cl)cc1C(c1ccccc1Cl)=NC2 [Hydroxytriazolam]
[1]; [8]
  Percent Recovery: 100%
[1]; [9]
  Percent Recovery: 100%
[2]; Example 7, for drug of group with highest contamination
  approximate minimum detection limit: 12 ng/mL
[2]; Example 10, for drug of group with highest contamination
  approximate minimum detection limit: 15 ng/mL

## CN(C)CCCN1c2ccccc2CCc2ccccc21 [Imipramine]
[1]; [4]
  Percent Recovery: 95%
[1]; [5]
  Percent Recovery: 82%
[1]; [6]
  Percent Recovery: 72%
[1]; urine
  Percent Recovery: 84

## CCN(CC)C(=O)[C@@H]1C=C2c3cccc4[nH]cc(c34)C[C@H]2N(C)C1 [LSD, lysergic acid diethylamide]
[1]; Example 8, SDVB, urine, wash buffer:acetonitrile (9:1), elution acetone:CHCl3 (1:1)
  Percent Recovery: 90%
[1]; urine
  Percent Recovery: 100

## CN[C@@H](C)Cc1ccccc1 [Methamphetamine]
[1]; urine
  Percent Recovery: 96 and 100

## CNCCC=C1c2ccccc2COc2ccccc21 [Nordoxepin]
[1]; [4]
  Percent Recovery: 93%
[1]; [5]
  Percent Recovery: 91%
[1]; [6]
  Percent Recovery: 80%
[1]; urine
  Percent Recovery: 84

## CNCCC=C1c2ccccc2CCc2ccccc21 [Nortriptyline]
[1]; [4]
  Percent Recovery: 89%
[1]; [5]
  Percent Recovery: 93%
[1]; [6]
  Percent Recovery: 86%
[1]; urine
  Percent Recovery: 87

## O=C1Nc2ccc(Cl)cc2C(c2ccccc2)=NC1O (stereo not shown) [Oxazepam]
[1]; [8]
  Percent Recovery: 41%
[1]; urine
  Percent Recovery: 85

## CCCC(C)C1(CC)C(=O)NC(=O)NC1=O (stereo not shown) [Pentobarbital]
[1]; [3]
  Percent Recovery: 93%
[1]; [7]
  Percent Recovery: 87%
[1]; urine
  Percent Recovery: 73

## CCC1(c2ccccc2)C(=O)NC(=O)NC1=O [Phenobarbital]
[1]; [3]
  Percent Recovery: 91%

## C=CCC1(C(C)CCC)C(=O)NC(=O)NC1=O (stereo not shown) [Secobarbital]
[1]; [3]
  Percent Recovery: 83%
[1]; [7]
  Percent Recovery: 100%
[1]; urine
  Percent Recovery: 92

## CCCCCc1cc(O)c2c(c1)OC(C)(C)[C@@H]1CCC(C(=O)O)=C[C@@H]21 [THC-COOH]
[1]; Example 1, SDVB, urine, elution ethyl acetate:isopropanol (85:15)
  Percent Recovery: 95%
[1]
  recoveries: 91%
[1]; urine
  Percent Recovery: 100
[2]; Example 1
  approximate minimum detection limit: 8 ng/mL
